Source: PubChem BioAssay AID1159601 (NIAID, 2016)
This is a random part of 756 reagents. 143 of them (19%) count as active. 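Calls include both lowered and raised reporter signal; each row is a single siRNA, not a gene summary; Pam3CSK4 dose not stated.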 Unmarked entries are inactive. The numbers tell different reagents against one gene apart. The record does not give: the amount of reagent.

Aim: 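Knock-down of 126 canonical TLR pathway genes, testing the TNF response to a TLR2 ligand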 (primary screen)
Cells: human THP-1 reporter cells differentiated with PMA into macrophage-like cells
Reagents: single siRNA against human genes
Time to read-out: ligand added 4 hours before read-out; cells assayed 48 to 72 hours after siRNA transfection
Treatment: Pam3CSK4 (TLR2 ligand) for 4 hours; dose not given
Measured: 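Firefly over renilla luciferase ratio from a TNF promoter reporter after 4 h Pam3CSK4, plate scaled by median and MAD, robust z-score versus negative controls, replicate mean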
Scale: TNF reporter z-score: higher = stronger TNF promoter reporter activity
Hit rule: 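The depositor grades each siRNA by the size of its mean z-score in either direction, with steps at 1, 1.5, 2 and 2.5; active calls sit near -1.5 or below, or near 1.5 or above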
Meaning of the calls: active = clear change (up or down); inactive = little change

no.	target	siRNA no.	TNF reporter z-score, replicate mean
1	RIPK3	1	-0.701
2	RIPK3	2	-0.602
3	RIPK3	3	0.804
4	RIPK3	4	-0.13
5	RIPK3	5	-0.931
6	RIPK3	6	-0.39
7	UBE2N	1	-0.795
8	UBE2N	2	-1.63 (active)
9	UBE2N	3	0.451
10	UBE2N	4	-0.422
11	UBE2N	5	-0.889
12	UBE2N	6	1.28
13	AKT3	1	0.238
14	AKT3	2	0.249
15	AKT3	3	2.34 (active)
16	AKT3	4	-1.47
17	AKT3	5	-0.958
18	AKT3	6	0.0238
19	TNF	1	-0.0444
20	TNF	2	-1.34
21	TNF	3	-0.998
22	TNF	4	-0.515
23	TNF	5	-1.85 (active)
24	TNF	6	-3.32 (active)
25	ELK1	1	-1.63 (active)
26	ELK1	2	-2.68 (active)
27	ELK1	3	-2.01 (active)
28	ELK1	4	-0.98
29	ELK1	5	-0.644
30	ELK1	6	0.203
31	MAPK10	1	0.399
32	MAPK10	2	-0.541
33	MAPK10	3	-0.515
34	MAPK10	4	-0.349
35	MAPK10	5	0.194
36	MAPK10	6	-0.429
37	DAB2IP	1	-1.11
38	DAB2IP	2	-1.69 (active)
39	DAB2IP	3	1.17
40	DAB2IP	4	-0.853
41	DAB2IP	5	-1.27
42	DAB2IP	6	0.364
43	ELK4	1	-0.588
44	ELK4	2	-1
45	ELK4	3	-0.89
46	ELK4	4	-1.36
47	ELK4	5	-0.706
48	ELK4	6	-0.0703
49	IRAK1	1	-0.96
50	IRAK1	2	-2.99 (active)
51	IRAK1	3	-4.31 (active)
52	IRAK1	4	-1.42
53	IRAK1	5	-2.57 (active)
54	IRAK1	6	-3.31 (active)
55	IL6	1	0.661
56	IL6	2	-0.972
57	IL6	3	-1.19
58	IL6	4	-0.0535
59	IL6	5	-1.27
60	IL6	6	-0.266
61	IFNAR2	1	-1.08
62	IFNAR2	2	-1.81 (active)
63	IFNAR2	3	-2.1 (active)
64	IFNAR2	4	-0.935
65	IFNAR2	5	-0.0431
66	IFNAR2	6	-0.907
67	LY86	1	0.196
68	LY86	2	-0.51
69	LY86	3	-0.647
70	LY86	4	-2.15 (active)
71	LY86	5	-0.757
72	LY86	6	-0.445
73	NFKB1	1	-1.16
74	NFKB1	2	-0.338
75	NFKB1	3	-0.924
76	NFKB1	4	-0.806
77	NFKB1	5	1.54 (active)
78	NFKB1	6	0.811
79	MYD88	1	-1.87 (active)
80	MYD88	2	-0.725
81	MYD88	3	-2.5 (active)
82	MYD88	4	0.232
83	MYD88	5	0.949
84	MYD88	6	0.975
85	MAPK14	1	-2.66 (active)
86	MAPK14	2	-2.23 (active)
87	MAPK14	3	-1.97 (active)
88	MAPK14	4	-1.32
89	MAPK14	5	-1.29
90	MAPK14	6	-1.92 (active)
91	FADD	1	-0.287
92	FADD	2	-0.536
93	FADD	3	0.191
94	FADD	4	-1.09
95	FADD	5	0.0767
96	FADD	6	-2.17 (active)
97	AKT1	1	0.812
98	AKT1	2	-0.127
99	AKT1	3	0.678
100	AKT1	4	-0.298
101	AKT1	5	-0.146
102	AKT1	6	-0.66
103	MAP3K7	1	-2.87 (active)
104	MAP3K7	2	-5.11 (active)
105	MAP3K7	3	-5.17 (active)
106	MAP3K7	4	-0.927
107	MAP3K7	5	-4.03 (active)
108	MAP3K7	6	-2.13 (active)
109	TANK	1	0.877
110	TANK	2	3.05 (active)
111	TANK	3	-0.0519
112	TANK	4	0.941
113	TANK	5	1.29
114	TANK	6	0.774

Already shown: entries from further up.
no.	target	siRNA no.	TNF reporter z-score, replicate mean
59	IL6	5	-1.27
60	IL6	6	-0.266
61	IFNAR2	1	-1.08
62	IFNAR2	2	-1.81 (active)
63	IFNAR2	3	-2.1 (active)
64	IFNAR2	4	-0.935
65	IFNAR2	5	-0.0431
66	IFNAR2	6	-0.907
67	LY86	1	0.196
68	LY86	2	-0.51
69	LY86	3	-0.647
70	LY86	4	-2.15 (active)
71	LY86	5	-0.757
72	LY86	6	-0.445
73	NFKB1	1	-1.16
74	NFKB1	2	-0.338
75	NFKB1	3	-0.924
76	NFKB1	4	-0.806
